Assay results taken from publication PMC3681934.
These are yes or no findings as the source states them, for the method shown. In cells and extracts the contact can be indirect. Here binding means that the protein was enriched with, or labelled near, the bait; the list need not be complete. Sequences can lack the tags named with a protein.

Sequences of proteins named here, by UniProt entry; tags and fusion partners are left off.
UniProt Q9Z1R2: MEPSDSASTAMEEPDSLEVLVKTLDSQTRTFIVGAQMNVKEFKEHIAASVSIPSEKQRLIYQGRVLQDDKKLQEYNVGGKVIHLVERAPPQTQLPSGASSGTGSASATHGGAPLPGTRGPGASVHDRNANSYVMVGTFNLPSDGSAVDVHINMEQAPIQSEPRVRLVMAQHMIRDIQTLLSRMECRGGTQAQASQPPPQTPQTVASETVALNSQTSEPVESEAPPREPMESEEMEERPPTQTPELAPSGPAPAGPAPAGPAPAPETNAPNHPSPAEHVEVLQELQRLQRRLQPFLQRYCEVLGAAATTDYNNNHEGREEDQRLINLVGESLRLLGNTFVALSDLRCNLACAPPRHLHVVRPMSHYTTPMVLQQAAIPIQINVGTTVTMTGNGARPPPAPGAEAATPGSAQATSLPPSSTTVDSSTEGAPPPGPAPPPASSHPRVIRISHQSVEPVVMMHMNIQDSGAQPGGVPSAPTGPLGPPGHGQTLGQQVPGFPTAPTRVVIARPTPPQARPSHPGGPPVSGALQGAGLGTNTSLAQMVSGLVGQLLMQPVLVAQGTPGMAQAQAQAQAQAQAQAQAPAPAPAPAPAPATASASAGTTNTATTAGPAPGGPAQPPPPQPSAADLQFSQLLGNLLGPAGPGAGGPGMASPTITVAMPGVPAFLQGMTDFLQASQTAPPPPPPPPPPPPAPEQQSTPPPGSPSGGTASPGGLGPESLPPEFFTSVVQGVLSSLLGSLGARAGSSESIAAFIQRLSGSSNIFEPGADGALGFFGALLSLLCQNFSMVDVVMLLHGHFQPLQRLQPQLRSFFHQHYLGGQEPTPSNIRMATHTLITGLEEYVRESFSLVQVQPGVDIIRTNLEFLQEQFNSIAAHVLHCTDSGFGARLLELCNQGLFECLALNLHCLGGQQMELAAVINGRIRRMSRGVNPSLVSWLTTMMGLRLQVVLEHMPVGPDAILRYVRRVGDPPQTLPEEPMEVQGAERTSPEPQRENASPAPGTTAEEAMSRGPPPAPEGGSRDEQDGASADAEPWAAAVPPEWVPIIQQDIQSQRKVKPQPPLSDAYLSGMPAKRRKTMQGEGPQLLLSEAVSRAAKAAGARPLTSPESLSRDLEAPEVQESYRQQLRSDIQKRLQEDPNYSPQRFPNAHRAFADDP
UniProt P16054: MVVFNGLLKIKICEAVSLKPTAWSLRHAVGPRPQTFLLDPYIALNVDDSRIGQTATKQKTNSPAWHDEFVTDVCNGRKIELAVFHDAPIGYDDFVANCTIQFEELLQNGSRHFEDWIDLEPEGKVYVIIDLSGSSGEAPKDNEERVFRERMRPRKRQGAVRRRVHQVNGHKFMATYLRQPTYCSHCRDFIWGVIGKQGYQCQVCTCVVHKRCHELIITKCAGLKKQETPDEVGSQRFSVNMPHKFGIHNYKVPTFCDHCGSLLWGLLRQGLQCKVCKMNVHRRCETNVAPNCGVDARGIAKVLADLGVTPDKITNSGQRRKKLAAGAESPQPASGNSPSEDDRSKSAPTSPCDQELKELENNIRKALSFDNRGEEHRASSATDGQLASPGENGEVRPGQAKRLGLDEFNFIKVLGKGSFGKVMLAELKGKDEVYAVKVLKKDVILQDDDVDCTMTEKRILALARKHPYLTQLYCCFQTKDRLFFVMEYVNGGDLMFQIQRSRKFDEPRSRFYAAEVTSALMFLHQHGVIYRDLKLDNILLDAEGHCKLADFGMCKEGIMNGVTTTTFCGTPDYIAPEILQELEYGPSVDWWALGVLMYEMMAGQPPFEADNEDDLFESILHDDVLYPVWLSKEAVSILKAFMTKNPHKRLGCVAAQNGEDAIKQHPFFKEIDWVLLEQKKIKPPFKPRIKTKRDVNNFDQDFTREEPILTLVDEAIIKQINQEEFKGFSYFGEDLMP
UniProt Q62261: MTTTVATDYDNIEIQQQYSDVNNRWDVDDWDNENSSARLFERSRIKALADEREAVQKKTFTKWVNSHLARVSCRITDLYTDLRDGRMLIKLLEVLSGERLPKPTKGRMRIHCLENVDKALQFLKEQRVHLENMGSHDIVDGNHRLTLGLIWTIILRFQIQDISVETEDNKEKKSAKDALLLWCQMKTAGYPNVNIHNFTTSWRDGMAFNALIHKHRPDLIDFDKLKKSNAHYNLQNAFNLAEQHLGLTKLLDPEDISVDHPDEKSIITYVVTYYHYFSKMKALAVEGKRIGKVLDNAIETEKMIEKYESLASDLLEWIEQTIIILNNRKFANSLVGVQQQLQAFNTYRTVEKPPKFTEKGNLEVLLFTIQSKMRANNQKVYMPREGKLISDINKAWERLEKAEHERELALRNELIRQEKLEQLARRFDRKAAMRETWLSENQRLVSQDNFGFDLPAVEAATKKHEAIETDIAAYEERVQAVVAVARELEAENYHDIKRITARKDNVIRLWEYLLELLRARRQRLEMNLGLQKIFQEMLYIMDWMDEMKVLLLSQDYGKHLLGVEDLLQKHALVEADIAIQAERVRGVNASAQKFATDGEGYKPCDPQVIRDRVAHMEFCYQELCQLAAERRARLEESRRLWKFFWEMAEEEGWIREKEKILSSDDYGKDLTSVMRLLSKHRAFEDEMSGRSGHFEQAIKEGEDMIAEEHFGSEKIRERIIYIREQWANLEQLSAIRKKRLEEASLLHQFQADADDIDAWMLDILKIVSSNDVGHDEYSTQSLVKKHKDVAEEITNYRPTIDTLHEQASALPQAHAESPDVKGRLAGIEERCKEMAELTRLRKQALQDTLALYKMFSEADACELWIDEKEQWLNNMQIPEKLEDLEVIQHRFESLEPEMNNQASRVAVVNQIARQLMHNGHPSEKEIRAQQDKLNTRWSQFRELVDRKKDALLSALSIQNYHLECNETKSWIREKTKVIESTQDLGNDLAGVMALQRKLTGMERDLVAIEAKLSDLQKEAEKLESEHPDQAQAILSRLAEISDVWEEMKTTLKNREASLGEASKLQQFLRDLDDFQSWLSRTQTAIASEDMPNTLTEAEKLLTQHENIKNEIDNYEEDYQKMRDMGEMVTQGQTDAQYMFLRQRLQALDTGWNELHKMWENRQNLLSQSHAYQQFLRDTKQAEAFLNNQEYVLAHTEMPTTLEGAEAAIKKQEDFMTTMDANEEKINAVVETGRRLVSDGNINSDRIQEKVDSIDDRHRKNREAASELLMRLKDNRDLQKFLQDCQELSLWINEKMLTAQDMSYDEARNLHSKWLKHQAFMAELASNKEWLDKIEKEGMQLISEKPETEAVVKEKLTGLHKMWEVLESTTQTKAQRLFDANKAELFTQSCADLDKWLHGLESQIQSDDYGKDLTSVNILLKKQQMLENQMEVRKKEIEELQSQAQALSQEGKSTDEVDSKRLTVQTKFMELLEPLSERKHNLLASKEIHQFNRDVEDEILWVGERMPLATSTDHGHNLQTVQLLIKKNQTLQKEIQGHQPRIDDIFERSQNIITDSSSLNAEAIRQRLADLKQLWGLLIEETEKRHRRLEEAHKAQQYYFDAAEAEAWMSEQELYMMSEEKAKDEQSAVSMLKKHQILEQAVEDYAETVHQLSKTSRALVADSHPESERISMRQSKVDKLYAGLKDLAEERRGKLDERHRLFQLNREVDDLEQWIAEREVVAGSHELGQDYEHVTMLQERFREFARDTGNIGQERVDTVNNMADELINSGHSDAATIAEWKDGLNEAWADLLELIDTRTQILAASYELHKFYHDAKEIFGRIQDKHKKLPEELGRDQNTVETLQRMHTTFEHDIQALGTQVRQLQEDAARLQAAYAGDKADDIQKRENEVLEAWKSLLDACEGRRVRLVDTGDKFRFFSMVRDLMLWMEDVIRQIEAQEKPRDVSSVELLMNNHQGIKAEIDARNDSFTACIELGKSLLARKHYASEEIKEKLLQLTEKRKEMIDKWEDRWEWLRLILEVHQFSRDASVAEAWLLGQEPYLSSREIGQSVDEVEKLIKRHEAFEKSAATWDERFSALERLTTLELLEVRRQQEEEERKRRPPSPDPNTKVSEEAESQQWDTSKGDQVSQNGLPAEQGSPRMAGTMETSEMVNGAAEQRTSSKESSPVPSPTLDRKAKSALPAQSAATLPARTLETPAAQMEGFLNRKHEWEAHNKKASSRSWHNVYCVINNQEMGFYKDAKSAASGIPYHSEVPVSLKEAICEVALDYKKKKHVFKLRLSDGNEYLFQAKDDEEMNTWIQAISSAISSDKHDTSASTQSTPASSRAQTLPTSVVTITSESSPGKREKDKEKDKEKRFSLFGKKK

T1: IL1RAPL1-ICD fused with maltose-binding protein (entire cytoplasmic domain of mouse IL1RAPL1, residues 379-696) (mouse) (UniProt P59823)
T1 sequence: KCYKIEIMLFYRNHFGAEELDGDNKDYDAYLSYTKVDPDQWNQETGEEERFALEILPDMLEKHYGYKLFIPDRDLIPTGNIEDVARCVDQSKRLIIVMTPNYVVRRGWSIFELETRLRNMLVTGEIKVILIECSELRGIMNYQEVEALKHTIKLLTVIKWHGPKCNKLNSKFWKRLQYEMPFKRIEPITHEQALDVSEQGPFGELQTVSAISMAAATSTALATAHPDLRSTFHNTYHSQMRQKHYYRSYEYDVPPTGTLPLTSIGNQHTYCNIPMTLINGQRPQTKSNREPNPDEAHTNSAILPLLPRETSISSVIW


Molecular target: T1, IL1RAPL1-ICD fused with maltose-binding protein (entire cytoplasmic domain of mouse IL1RAPL1, residues 379-696) (mouse)
Assay: affinity purification with mass spectrometry; IL1RAPL1-ICD-MBP on amylose resin packed as affinity column; mouse forebrain proteins extracted in 2 M NaCl loaded; eluted with 0.5 M NaCl; SDS-PAGE, five bands stronger than in the MBP control analysed by LC-MS/MS; only the target purified

| binding | Molecule |
| --- | --- |
| binds | spectrin α2 (from UniProt P16546 1-2472) |
| binds | Bat3 (endogenous, mouse forebrain) (from UniProt Q9Z1R2 1-1154) |
| binds | protein kinase C ε (endogenous, mouse forebrain) (from UniProt P16054 1-737) (enzyme) |
| binds | spectrin β2 (from UniProt Q62261 1-2363) |
| binds | MCF.2 cell line derived transforming sequence-like (endogenous, mouse forebrain) (protein, UniProt Q64096 1-1149) MSDCWCFIFCKEHVRSNPLSPQHDGASREEADHQVDVSDGIRLVPDKAEATAATASDEIMHQDIVPLCAADIQEQLKKRFAYLSGGRGQDGSPVITFPDYPAFSEIPDKEFQNVMTYLTSIPSLQDAGIGFILVIDRRQDKWTSVKASVLRIAASFPANLQLVLVLRPTGFFQRTLSDIAFKFNRDEFKMKVPVMMLSSVPELHGYIDKSQLTEDLGGTLDYCHSRWLCHRTAIESFALMVKQTAQMLQAFGTELAETELPNDVQSTSLVLSAHTEKKAKVKEDLQLALKEGNSILESLREPLAESAAHSVNQDQLDNQATVQRLLAQLNETEAAFDEFWAKHQQKLEQCLQLRHFEQGFREVKTTLDSMSQKIAAFTDVGNSLAHVQHLLKDLTAFEEKSSVAVDKARALSLEGQQLIENRHYAVDSIHPKCEELQHLCDHFASEVTRRRGLLSKSLELHSLLETSMKWSDEGIFLLASQPVDKCQSQDGAEAALQEIEKFLETGAENKIQELNEIYKEYECILNQDLLEHVQKVFQKQESTEEMFHRRQASLKKLAAKQTRPVQPVAPRPEALTKSPSPSPGSWRSSENSSSEGNALRRGPYRRAKSEMSEPRQGRTSSTGEEEESLAILRRHVMNELLDTERAYVEELLCVLEGYAAEMDNPLMAHLISTGLQNKKNILFGNMEEIYHFHNRNIPAGLESCIDCPELVGRCFLERMEEFQIYEKYCQNKPRSESLWRQCSDCPFFQECQKKLDHKLSLDSYLLKPVQRITKYQLLLKEMLKYSKHCEGAEDLQEALSSILGILKAVNDSMHLIAITGYDGNLGDLGKLLMQGSFSVWTDHKKGHTKVKELARFKPMQRHLFLHEKAVLFCKKREENGEGYEKAPSYSYKQSLNMTAVGITENVKGDTKKFEIWYNAREEVYIIQAPTPEIKAAWVNEIRKVLTSQLQACREASQHRALEQSHSLPLPTPSSTSPTKGNTRNVKKLEDRKTDPLSLEGYVSSSLPKPPEKGKGWSKTSHSLEAPEEDGGWSSAEELINSSDAEEDGGVGPKKLVPGKYTVVMDDEKGGPDTLAMRSGDMVEVVEEGAEGLWYVRDLTSSKEGWVPASSLSTLLGKSSSAQCLSSSGKIHCARQLCPEPAEILSPEPV |
| binds | Ras protein activator like 1 (endogenous, mouse forebrain) (protein, UniProt Q9Z268 1-799) MAKSGSLSIRVVEGRALPAKDVSGSSDPYCLVKVDDQVVARTATIWRSLSPFWGEEYTVHLPLDFHHLAFYVLDEDTVGHDDIIGKISLSKEAITADPRGIDSWINLSRVDPDAEVQGEVCLDVKLLEDARGRCLRCHVRQARDLAPRDISGTSDPFARVFWGNHSLETSTIKKTRFPHWDEVLELREAPGTTSPLRVELWDWDMVGKNDFLGMVEFTPQTLQQKPPNGWFRLLPFPRAEDSGGSLGALRLKVRLTEDRVLPSQYYQPLMELLLESVQGPAEEDTTSPLALLEELASGDCRQDLATKLVKLFLGRGLAGPFLDYLTRREVARTNDPNTLFRSNSLASKSMEQFMKLVGMRYLHEVLRPVISRVFEEKKYMELDPCKMDLNRSRRISFKGTPTEEQVRETSLGLLTGYLGSVVDAIVSSTGRCPLALRLAFKQLQRCVEKRFSGIEHQDVKYLAISGFLFLRFFAPAILTPKLFDLRDQHADPQTSRSLLLLAKAVQSIGNLGQQLGQGKEQWLAPLHPFLLQSISRVRDFLDQLVDVDEDEEAGGPACALVQPSTIVREGFLLKRKEEPGGLATRFAFKKRYFRLSGRDLSYSKTPEWQVHTSIPLSCIRAVEHVDEGAFQLPHVMQVVTQDGAGTSHTTYLQCKNVNDLNQWLSALRKASAPNPGKLVACHPGAFRSGRWTCCLQAERSAAGCSRTHSAITLGDWSDPLDPDAEAQAVYRQLLLGRDQLRLKLLEDSSLDTEVDPGRDSSATDGPCAEVLAQQRAATTHLLQVLEDLEQAHEEFQKRG |
| binds | Snap-25-interacting protein (endogenous, mouse forebrain) (protein, UniProt Q9QWI6 1-1250) MQPWQCLRRFALAWWERTAEGRARSPREEVGPRDPGGRGEPDPERSSPPMLSADDAEYPREYRTLGGGGGGGSGGRRFSNVGLVHTSERRHTVIAAQSLEALSGLQKADADRKRDAFMDHLKSKYPQHALALRGQQDRMREQVGGWTVDPVCLLSSLCSHLHGDSTPSGAGQPAQQPNYWSFKTRSSRHTQGAQPGLADQAAKLSYASAESLETMSEAELPLGFSRMNRFRQSLPLSRSASQTKLRSPGVLFLQFGEETRRVHITHEVSSLDTLHALIAHMFPQKLTMGMLKSPNTAILIKDEARNVFYELEDVRDIQDRSIIKIYRKEPLYAAFPGSHLTNGDLRREMVYASRESSPTRRLNNLSPASHLASSSPPPGLPSGLPSGLPSGSPSRSRLSYAGGRPPSYAGSPVHHAAERLGGAPTGQGVSPSPSAILERRDVKPDEDLAGKAGGMVLVKGEGLYADPYGLLHEGRLSLAAAAETHSHTRARAACTSGVPCALSAPTPLPRCSPTWRTRCTRRALAALYGDGYGFRLPPSSPQKLADVSAPSGGPPPPHSPYSGPPSRGSPVRQSFRKDSGSSSVFAESPGGKARSTGSASTAGAPPSELFPGPGERSLVGFGPPVPAKDTETRERMEAMEKQIASLTGLVQSALLRGSEPETPSEKVEGSNGAATPSAPVCGSGSKSSGATPVSGPPPPSASSTPAGQPTAVSRLQMQLHLRGLQNSASDLRGQLQQLRNVQLQNQESVRALLKPTEADVSMRVSEAARRQEDPLQRQRTLVEEERLRYLNDEELITQQLNDLEKSVEKIQRDVAHNHRLMPGPELEEKALVLKQLGETLTELKAHFPGLQSKMRVVLRVEVEAVKFLKEEPQRLDGLLKRCRGVTDTLAQIRRQVDEGMWPPPNNLLNQSPKKVAAETDFSKGLDFEIPPPSPPLNLHELSGPAEGTPLTPKSTNPTKCLDASSKRNTDKAVSVEAAERDWEEKRAALTQYSAKDINRLLEETQAELLKAIPDLDCASKTHPGPAPTPDHKPPKAPHGQKAAPRTEPSGRRGSDELTVPRYRTEKPSKSPPPPPPRRSFPSSHGLTTTRTGEVVVTSKKDSVFIKKAESEELEVQKPQVKLRRAVSEVVRPASTPPIMASAIKDEDDEERIIAELESGGSSVPPMKVVTPGASRLKAAQGPAGSPDKGKHGKQRTEYMRIQAQQQATKPSKEVSGPNETSSPGSEKPSGSRTSIPVLTSFGARNSSISF |
| binds | phospholipase C β1 (endogenous, mouse forebrain) (enzyme, UniProt Q9Z1B3 1-1216) MAGAQPGVHALQLKPVCVSDSLKKGTKFVKWDDDSTIVTPIILRTDPQGFFFYWTDQNKETELLDLSLVKDARCGKHAKAPKDPKLRELLDVGNIGHLEQRMITVVYGPDLVNISHLNLVAFQEEVAKEWTNEVFSLATNLLAQNMSRDAFLEKAYTKLKLQVTPEGRIPLKNIYRLFSADRKRVETALEACSLPSSRNDSIPQEDFTPDVYRVFLNNLCPRPEIDNIFSEFGAKSKPYLTVDQMMDFINLKQRDPRLNEILYPPLKQEQVQVLIEKYEPNSSLAKKGQMSVDGFMRYLSGEENGVVSPEKLDLNEDMSQPLSHYFINSSHNTYLTAGQLAGNSSVEMYRQVLLSGCRCVELDCWKGRTAEEEPVITHGFTMTTEISFKEVIEAIAECAFKTSPFPILLSFENHVDSPKQQAKMAEYCRLIFGDALLMEPLEKYPLESGVPLPSPMDLMYKILVKNKKKSHKSSEGSGKKKLSEQASNTYSDSSSVFEPSSPGAGEADTESDDDDDDDDCKKSSMDEGTAGSEAMATEEMSNLVNYIQPVKFESFEISKKRNKSFEMSSFVETKGLEQLTKSPVEFVEYNKMQLSRIYPKGTRVDSSNYMPQLFWNAGCQMVALNFQTVDLAMQINMGMYEYNGKSGYRLKPEFMRRPDKHFDPFTEGIVDGIVANTLSVKIISGQFLSDKKVGTYVEVDMFGLPVDTRRKAFKTKTSQGNAVNPVWEEEPIVFKKVVLPSLACLRIAAYEEGGKFIGHRILPVQAIRPGYHYICLRNERNQPLTLPAVFVYIEVKDYVPDTYADVIEALSNPIRYVNLMEQRAKQLAALTLEDEEEVKKEADPGETSSEAPSETRTTPAENGVNHTASLAPKPPSQAPHSQPAPGSVKAPAKTEDLIQSVLTEVEAQTIEELKQQKSFVKLQKKHYKEMKDLVKRHHKKTTELIKEHTTKYNEIQNDYLRRRAALEKSAKKDSKKKSEPSSPDHGSSAIEQDLAALDAEMTQKLIDLKDKQQQQLLNLRQEQYYSEKYQKREHIKLLIQKLTDVAEECQNNQLKKLKEICEKEKKELKKKMDKKRQEKITEAKSKDKSQMEEEKTEMIRSYIQEVVQYIKRLEEAQSKRQEKLVEKHNEIRQQILDEKPKLQTELEQEYQDKFKRLPLEILEFVQEAMKGKISEDSNHGSAPPSLASDAAKVNLKSPSSEEIERENPGREFDTPL |
| binds | Snap91 (endogenous, mouse forebrain) (protein, UniProt Q61548 1-901) MSGQTLTDRIAAAQYSVTGSAVARAVCKATTHEVMGPKKKHLDYLIQATNETNVNIPQMADTLFERATNSSWVVVFKALVTTHHLMVHGNERFIQYLASRNTLFNLSNFLDKSGSHGYDMSTFIRRYSRYLNEKAFSYRQMAFDFARVKKGADGVMRTMVPEKLLKSMPILQGQIDALLEFDVHPNELTNGVINAAFMLLFKDLIKLFACYNDGVINLLEKFFEMKKGQCKDALEIYKRFLTRMTRVSEFLKVAEQVGIDKGDIPDLTQAPSSLMETLEQHLNTLEGKKPGNNEGSGAPSPLSKSSPATTVTSPNSTPAKTIDTSPPVDIFATASAAAPVSSAKPSSDLLDLQPDFSGAAAGAAAPVVPPSGGATAWGDLLGEDSLAALSSVPCEAPISDPFAPEPSPPTTTTEPASASASTTTAVTAVTTEVDLFGDAFAASPGEAPAASEGATAPATPAPVAAALDACSGNDPFAPSEGSAEAAPELDLFAMKPPETSAPVVTPTASTAPPVPATAPSPAPTAVAATAATTTAAAAATTTATTSAAAATTAAAPPALDIFGDLFDSAPEVAAAPKPDAAPSIDLFGTDAFSSPPRGASPVPESSLTADLLSVDAFAAPSPASTASPAKAESSGVIDLFGDAFGSGASETQPAPQAVSSSSASADLLAGFGGSFMAPSTTPVTPAQNNLLQPSFEAAFGTTPSTSSSSSFDPSVFDGLGDLLMPTMAPSGQPAPVSMVPPSPAMAASKGLGSDLDSSLASLVGNLGISGTTSKKGDLQWNAGEKKLTGGANWQPKVTPATWSAGVPPQGTVPPTSSVPPGAGAPSVGQPGAGFGMPPSGTGMTMMSQQPVMFAQPMMRPPFGAAAVPGTQLSPSPTPATQSPKKPPAKDPLADLNIKDFL |
